# Reference: PubChem BioAssay AID2551 (National Center for Advancing Translational Sciences (NCATS), 2010)
# Protein sequences, listed by entry. Tags and fused reporters are not part of them. Lines headed by an entry give the natural chain unless they say otherwise; changes in a name come on top.
# UniProt P51450: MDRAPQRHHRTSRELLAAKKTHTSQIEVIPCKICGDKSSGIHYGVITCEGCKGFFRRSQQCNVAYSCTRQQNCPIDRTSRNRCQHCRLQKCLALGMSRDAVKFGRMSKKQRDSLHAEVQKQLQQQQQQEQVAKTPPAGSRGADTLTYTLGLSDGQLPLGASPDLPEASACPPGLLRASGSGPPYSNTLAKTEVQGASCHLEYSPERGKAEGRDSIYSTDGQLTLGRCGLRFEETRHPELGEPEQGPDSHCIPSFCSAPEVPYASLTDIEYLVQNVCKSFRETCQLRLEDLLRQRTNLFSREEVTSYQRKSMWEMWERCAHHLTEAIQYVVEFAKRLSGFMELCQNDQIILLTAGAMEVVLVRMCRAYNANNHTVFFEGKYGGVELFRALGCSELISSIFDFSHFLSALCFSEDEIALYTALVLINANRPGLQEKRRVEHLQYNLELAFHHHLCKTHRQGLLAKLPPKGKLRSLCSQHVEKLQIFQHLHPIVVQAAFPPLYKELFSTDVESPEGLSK
# Hit rate of the full screen: of about 310,000 compounds, about 17,000 (5.5%) were called active. Inconclusive means that the source gave no clear call. Such entries were picked first, then a sample of the others. Calls come from the whole dose curve; as a rule, active = well fitted inhibition curve with a large enough effect; inconclusive = small, poorly fitted or top-dose-only effect, or effect the other way; inactive = no such curve, though single readings can be large or run the other way. Where the call is inconclusive, the potency comes from a doubtful curve fit.
# Molecular target: Nuclear receptor ROR-gamma (Mus musculus) (UniProt P51450)
# Assay: qHTS for inhibitors of ROR gamma transcriptional activity; note: nearly all actives have a fitted effect of over 60% in size
# Conditions: Drosophila S2 Gal4-RORgamma UAS-luciferase reporter, 20 h; series mostly up to 53.6 µM
# Summary of the method: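 Using a luciferase readout, inhibitors were identified by reduced reporter activity in Drosophila cells coexpressing a copper-inducible Gal4–ROR gamma fusion and UAS-driven Photinus luciferase, incubated 20 hr after 700 uM copper sulfate.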
# Potency is the fitted concentration of half-maximal effect.
row,Compound,Potency
1,CCN1C(=O)[C@H]2[C@@H](c3ccc(Cl)cc3)N3C(=O)CN(CC4CC4)C(=O)[C@@]3(Cc3ccccc3)[C@H]2C1=O,inactive
2,COc1ccc(C2CC(O)(c3ccccc3)Oc3cc(OC)ccc32)cc1 (configuration not stated),"inconclusive: 1.78 µM [activator, single point]"
3,Cc1csc(NC(=O)CSc2nnc(NC(=O)COc3ccccc3)s2)n1,"inconclusive: 5.62 µM [inhibitor, partial curve, poor fit]"
4,COc1ccc(C2C(C(=O)Nc3cccnc3)=C(C)Nc3nc(-c4cccs4)nn32)cc1 (configuration not stated),"inconclusive: 17.8 µM [activator, partial curve]"
5,Cc1cc(C)c2nc(NC(=O)c3ccc4c(c3)OCO4)sc2c1,active: 0.251 µM
6,Cc1ccc(C(=O)Nc2ccccc2SCC2CSc3nc4ccccc4c(=O)n32)cc1 (configuration not stated),"inconclusive: 22.4 µM [activator, single point]"
7,O=C(CN1CCN(c2ccccc2)CC1)Nc1ccccc1Sc1ccccc1,"inconclusive: 11.2 µM [activator, single point]"
8,Cn1c(CCCOc2ccc(Cl)cc2Cl)n[nH]c1=S,active: 6.31 µM
9,S=c1[nH]ncn1/N=C/c1cccs1,"inconclusive: 14.1 µM [inhibitor, single point]"
10,C=CCn1c(CNc2ccccc2)nnc1SCC(=O)N/N=C/c1ccccc1O,active: 10 µM
11,COc1cc(C(C[N+](=O)[O-])c2c(C)cc3ccccn23)ccc1O (configuration not stated),active: 15.8 µM
12,CC(=O)Oc1ccc2c(c1)CCC1C2CC[C@]2(C)C(OC(C)=O)CCC12 (some centres not stated),"inconclusive: 31.6 µM [activator, single point]"
13,CCCCC/C=C\C\C=C/C=C/C=C/[C@@H](SCC(N)C(=O)O)[C@@H](O)CCCC(=O)O (some centres not stated),inactive
14,CCOC(=O)c1c(NC(=O)COC(=O)Cn2cnc3ccccc32)sc2c1CCC(C)C2 (configuration not stated),inactive
15,COc1ccc2[nH]cc(C(=O)NCCc3ccccc3)c(=O)c2c1,"inconclusive: 10 µM [activator, partial curve]"
16,CC1CC(C)CN(C(=O)c2ccc(S(=O)(=O)N3CC(C)CC(C)C3)cc2)C1 (configuration not stated),inactive
17,Cc1ccc(NC(=S)N(CCN2CCOCC2)Cc2ccccc2F)cc1,"inconclusive: 14.1 µM [inhibitor, single point]"
18,CC(C)(C)NS(=O)(=O)c1cc(C(=O)Nc2sccc2C#N)ccc1Cl,"inconclusive: 14.1 µM [activator, single point]"
19,Cc1ccc(Cn2c(=N)n(CC(=O)c3ccc([N+](=O)[O-])cc3)c3ccccc32)cc1,"inconclusive: 3.16 µM [inhibitor, full curve, poor fit]"
20,CCOc1cccc(C(=O)NC(=S)NCc2cccnc2)c1,"inconclusive: 35.5 µM [inhibitor, single point]"
21,Cn1c(=O)n(/N=C/c2ccccc2)c2ccccc21,"inconclusive: 3.16 µM [activator, single point]"
22,CN1CCN(NC(=O)c2cn(-c3ccccc3)nc2-c2cccs2)CC1,inactive
23,CC[n+]1ccc2cc(OC)c(OC)cc2c1Cc1ccc(OC)c(OC)c1,inactive
24,CC1=NN(C(=O)Cn2nc([N+](=O)[O-])cc2C)C(O)(C(F)(F)F)C1 (configuration not stated),active: 10 µM
25,O=C(/C=C/c1ccc2c(c1)OCO2)c1ccccn1,"inconclusive: 35.5 µM [inhibitor, single point]"
26,CC1(C)CCC2=C(O1)c1ccccc1C(=O)C2=O,active: 2.51 µM

row,Compound,Potency
1,COCCn1c(=S)[nH]c2cc(C(=O)N3CCN(c4ccccc4OC)CC3)ccc2c1=O,active: 14.1 µM
2,O=C(Cn1nc(C(F)(F)F)cc1C1CC1)NCc1ccccc1F,inactive
3,CC(C)(C)SCCNC(=O)c1ccc(Cl)c([N+](=O)[O-])c1,"inconclusive: 25.1 µM [activator, single point]"
4,Cc1cc(C(=O)COc2ccccc2C(N)=O)c(C)n1C1CC1,inactive
5,COc1cc(NC(=O)CN(C)S(=O)(=O)c2cccs2)cc(OC)c1,inactive
6,CCSc1nnc(NC(=O)NC(C)(C(F)(F)F)C(F)(F)F)s1,"inconclusive: 15.8 µM [activator, single point]"
7,O=C1CCCN1CCNC(=S)Nc1ccccc1,inactive
8,COc1cc(C(=O)OCCCN2CCOCC2)ccc1O,inactive
9,CCCc1cc(=O)oc2c3c(cc(OCC(=O)NCc4ccncc4)c12)OC(C)(C)CC3,"inconclusive: 25.1 µM [activator, single point]"
10,S=c1[nH]nc(CSc2nc3ccccc3s2)o1,active: 14.1 µM
11,O=C(NCCc1ccccc1)c1oc2ccccc2c1COc1ccccc1,"inconclusive: 10 µM [activator, partial curve]"
12,CCN(CC)c1ccc(/C=N/Nc2nc(C)cc(=O)[nH]2)c(O)c1,active: 5.01 µM
13,COc1ccc2c(c1)CCc1c(C(=O)Nc3ccc(OC)c(OC)c3)noc1-2,active: 1.41 µM
14,CC1CC(C)CN(c2ccc([N+](=O)[O-])nc2)C1 (configuration not stated),"inconclusive: 22.4 µM [activator, single point]"
15,Cn1cccc1/C=N/NC(=O)c1cccs1,"inconclusive: 22.4 µM [inhibitor, single point]"
16,Fc1ccc(CN(Cc2ccccc2)C(c2cccs2)c2nnnn2C2CCCCC2)cc1 (configuration not stated),"inconclusive: 4.47 µM [inhibitor, partial curve]"
17,Cc1c(N2C(=O)c3ccc(F)cc3C2=O)c(=O)n(-c2ccccc2)n1C,inactive
18,CCOC(=O)CC1CCCCN1C(=O)c1cc(COc2cccc3cnccc23)on1 (configuration not stated),"inconclusive: 1.26 µM [activator, single point]"
19,CCN(CC)S(=O)(=O)c1ccc2c(c1)nc(CCC(=O)Nc1ccc3c(c1)OCO3)n2CC,"inconclusive: 12.6 µM [activator, single point]"
20,Cc1onc(-c2c(F)cccc2Cl)c1C(=O)Nc1nnc(-c2ccccc2)s1,active: 14.1 µM
21,Cc1ccc(NC(=S)NNC(=O)C2CC2c2ccc(C)cc2)cc1 (configuration not stated),active: 11.2 µM
22,Cn1c(=O)c2cn(-c3ccc4c(c3)OCCO4)cc2n(C)c1=O,inactive
23,CN(C)S(=O)(=O)c1ccc(C(=O)NCC(=O)N/N=C/c2ccccc2)cc1,inactive
24,COc1ccc(CCN2CC(C(=O)NCc3ccc(F)cc3)CC2=O)cc1OC (configuration not stated),"inconclusive: 3.16 µM [activator, full curve, poor fit]"
25,O=C1C(Br)=Cc2cccc3cccc1c23,inactive
26,CCCCN(CCCC)Cc1ccc(C(=O)NN)o1,inactive

# Arranged by molecular weight (largest number first): part of the list above
row,Compound,Potency
23,CN(C)S(=O)(=O)c1ccc(C(=O)NCC(=O)N/N=C/c2ccccc2)cc1,inactive
17,Cc1c(N2C(=O)c3ccc(F)cc3C2=O)c(=O)n(-c2ccccc2)n1C,inactive
22,Cn1c(=O)c2cn(-c3ccc4c(c3)OCCO4)cc2n(C)c1=O,inactive
7,O=C1CCCN1CCNC(=S)Nc1ccccc1,inactive

# More results

row,Compound,Potency
1,CCOC(=O)Cn1ncc2c3ccccc3n(CC(=O)OCC)c2c1=O,inactive
2,O=C(c1cc(COc2c(F)cccc2F)on1)N1CCC(c2ccccc2Cl)C1 (configuration not stated),"inconclusive: 22.4 µM [activator, single point]"
3,CCOc1cccc(/C=N/NS(=O)(=O)c2ccc(C)c([N+](=O)[O-])c2)c1O,"inconclusive: 28.2 µM [inhibitor, single point]"
4,C/C(=N\NC(=O)Cc1cc(=O)[nH][nH]1)c1cccc([N+](=O)[O-])c1,inactive
5,Cn1cccc1C(=O)N1CCC[C@@]2(CCN(c3cccc(-c4ccccc4)c3)C2)C1,inactive
6,c1cc2c(cc1C1=NNC(=NC3CC3)SC1)OCCO2,active: 2.51 µM
7,Cc1cc(NC(=O)c2ccc(F)cc2)n(CCOC(=O)c2ccc(F)cc2)n1,"inconclusive: 17.8 µM [activator, partial curve]"
8,COc1ccc(-n2c(SCC(=O)Nc3sc4c(c3C#N)CCCC4)nnc2-c2ccccc2OC)cc1,inactive
9,O=C(N/N=C/c1ccccn1)c1cccc(S(=O)(=O)N2CCCC2)c1,"inconclusive: 35.5 µM [inhibitor, single point]"
10,O=C(NCc1ccccn1)/C(=N/O)c1ccccc1,active: 10 µM
11,COc1ccc(C2=NOC(C(=O)N3CCCCCC3)C2)cc1OC (configuration not stated),inactive
12,CCOC(=O)C1CCN(C(=O)Nc2ccc3snnc3c2)CC1,"inconclusive: 28.2 µM [inhibitor, single point]"
13,COc1ccc(-n2nc(C)c3c(=O)c4c([nH]c32)CCCC4)cc1,inactive
14,c1ccc(-c2n[nH]c3c2CCC3)cc1,active: 12.6 µM
15,O=C1/C(=C/c2ccccc2[N+](=O)[O-])COc2ccccc21,"inconclusive: 35.5 µM [inhibitor, single point]"
16,O=C(COc1ccc2ccccc2c1Br)NC(=S)Nc1cccc(CO)c1,active: 7.94 µM
17,Cc1cc(C)nc(SSc2nc(C)cc(C)n2)n1,active: 5.62 µM
18,S=C(NC1CCCC1)NN1CCOCC1,"inconclusive: 22.4 µM [inhibitor, single point]"
19,C=CCNc1nc2ccccc2nc1NS(=O)(=O)c1ccc(F)cc1,"inconclusive: 11.2 µM [activator, partial curve]"
20,COc1ccc2nc(C)cc(N/N=C/c3cccc(OC)c3O)c2c1,"inconclusive: 35.5 µM [inhibitor, single point]"
21,COc1ccc(/C=C2/Sc3ccc(C(=O)NCCCN4CCOCC4)cc3NC2=O)cc1OC,"inconclusive: 35.5 µM [inhibitor, single point]"
22,Cc1c2ccccc2c(CSC(=N)N)c2ccccc12,active: 11.2 µM
23,CCC1(C)N([O-])C(C)=C(c2ccccc2)[N+]1=O (configuration not stated),"inconclusive: 5.62 µM [inhibitor, single point]"
24,O=C(COc1ccc(Br)cc1Cl)NC(=S)Nc1ccccn1,"inconclusive: 14.1 µM [inhibitor, partial curve, poor fit]"
25,O=C(Oc1c(Br)cc(C(=S)N2CCOCC2)cc1Br)c1ccc(Cl)cc1,"inconclusive: 17.8 µM [activator, partial curve]"
